Results are given in words; binding and its absence hold for the method and conditions named. Binding seen in cells or lysates may run through a third protein. Here binding means that the protein was enriched with, or labelled near, the bait; the list need not be complete. Sequences can lack the tags named with a protein.

Protein sequences, listed by entry. Tags and fused reporters are not part of them. Lines headed by an entry give the natural chain unless they say otherwise; changes in a name come on top. Residues count along the entry.
UniProt Q07540: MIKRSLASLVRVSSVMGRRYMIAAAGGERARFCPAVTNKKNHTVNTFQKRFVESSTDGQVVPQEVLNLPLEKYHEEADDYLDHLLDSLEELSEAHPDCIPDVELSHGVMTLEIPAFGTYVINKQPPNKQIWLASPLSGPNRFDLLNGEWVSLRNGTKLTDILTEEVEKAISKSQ
UniProt P40495, residues 23-371: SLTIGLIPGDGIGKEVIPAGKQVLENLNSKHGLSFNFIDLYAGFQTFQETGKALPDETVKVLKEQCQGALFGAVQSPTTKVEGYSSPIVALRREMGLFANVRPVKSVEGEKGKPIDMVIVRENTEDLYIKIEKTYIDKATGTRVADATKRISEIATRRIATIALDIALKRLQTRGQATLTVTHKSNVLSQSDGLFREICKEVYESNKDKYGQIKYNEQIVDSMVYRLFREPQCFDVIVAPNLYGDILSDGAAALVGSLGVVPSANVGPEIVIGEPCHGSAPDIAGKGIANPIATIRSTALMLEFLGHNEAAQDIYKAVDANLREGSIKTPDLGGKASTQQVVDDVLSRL
UniProt P50861: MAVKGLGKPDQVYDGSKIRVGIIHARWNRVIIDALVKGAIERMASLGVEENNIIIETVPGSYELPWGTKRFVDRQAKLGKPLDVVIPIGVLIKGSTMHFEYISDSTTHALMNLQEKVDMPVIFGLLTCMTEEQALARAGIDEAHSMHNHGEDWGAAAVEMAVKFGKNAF
UniProt P09232: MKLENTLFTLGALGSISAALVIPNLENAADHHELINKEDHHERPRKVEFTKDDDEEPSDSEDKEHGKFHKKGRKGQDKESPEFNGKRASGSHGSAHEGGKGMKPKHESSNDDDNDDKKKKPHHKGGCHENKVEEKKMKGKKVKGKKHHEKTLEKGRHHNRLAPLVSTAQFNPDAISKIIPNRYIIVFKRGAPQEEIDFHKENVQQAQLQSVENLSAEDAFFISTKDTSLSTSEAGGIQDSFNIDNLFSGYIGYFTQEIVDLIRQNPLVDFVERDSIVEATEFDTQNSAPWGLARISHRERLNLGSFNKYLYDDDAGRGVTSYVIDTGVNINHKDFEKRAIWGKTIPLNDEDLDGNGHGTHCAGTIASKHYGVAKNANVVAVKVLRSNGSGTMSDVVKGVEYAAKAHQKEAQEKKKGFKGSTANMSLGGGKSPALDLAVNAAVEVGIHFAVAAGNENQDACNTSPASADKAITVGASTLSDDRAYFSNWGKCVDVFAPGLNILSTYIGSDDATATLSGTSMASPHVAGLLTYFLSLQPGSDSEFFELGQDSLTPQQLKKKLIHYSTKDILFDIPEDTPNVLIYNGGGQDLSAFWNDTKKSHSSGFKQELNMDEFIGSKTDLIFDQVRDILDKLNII
UniProt P16474, residues 43-682: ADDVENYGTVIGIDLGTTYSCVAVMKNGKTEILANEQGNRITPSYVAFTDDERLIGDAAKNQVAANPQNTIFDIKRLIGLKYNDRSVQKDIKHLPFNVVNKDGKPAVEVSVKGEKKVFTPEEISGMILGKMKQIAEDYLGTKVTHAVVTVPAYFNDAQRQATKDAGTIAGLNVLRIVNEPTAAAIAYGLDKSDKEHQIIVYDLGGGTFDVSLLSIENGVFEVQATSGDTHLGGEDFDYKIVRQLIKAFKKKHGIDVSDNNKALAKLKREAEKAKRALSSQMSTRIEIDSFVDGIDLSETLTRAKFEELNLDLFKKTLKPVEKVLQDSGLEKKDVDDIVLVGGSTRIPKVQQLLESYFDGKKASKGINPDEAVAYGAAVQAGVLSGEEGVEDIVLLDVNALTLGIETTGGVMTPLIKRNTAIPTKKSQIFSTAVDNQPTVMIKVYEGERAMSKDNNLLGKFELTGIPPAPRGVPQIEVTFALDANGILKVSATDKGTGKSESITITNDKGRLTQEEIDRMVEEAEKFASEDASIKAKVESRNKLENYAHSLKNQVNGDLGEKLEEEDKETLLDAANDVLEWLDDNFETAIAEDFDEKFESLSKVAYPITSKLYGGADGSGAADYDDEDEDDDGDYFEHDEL
UniProt P10591: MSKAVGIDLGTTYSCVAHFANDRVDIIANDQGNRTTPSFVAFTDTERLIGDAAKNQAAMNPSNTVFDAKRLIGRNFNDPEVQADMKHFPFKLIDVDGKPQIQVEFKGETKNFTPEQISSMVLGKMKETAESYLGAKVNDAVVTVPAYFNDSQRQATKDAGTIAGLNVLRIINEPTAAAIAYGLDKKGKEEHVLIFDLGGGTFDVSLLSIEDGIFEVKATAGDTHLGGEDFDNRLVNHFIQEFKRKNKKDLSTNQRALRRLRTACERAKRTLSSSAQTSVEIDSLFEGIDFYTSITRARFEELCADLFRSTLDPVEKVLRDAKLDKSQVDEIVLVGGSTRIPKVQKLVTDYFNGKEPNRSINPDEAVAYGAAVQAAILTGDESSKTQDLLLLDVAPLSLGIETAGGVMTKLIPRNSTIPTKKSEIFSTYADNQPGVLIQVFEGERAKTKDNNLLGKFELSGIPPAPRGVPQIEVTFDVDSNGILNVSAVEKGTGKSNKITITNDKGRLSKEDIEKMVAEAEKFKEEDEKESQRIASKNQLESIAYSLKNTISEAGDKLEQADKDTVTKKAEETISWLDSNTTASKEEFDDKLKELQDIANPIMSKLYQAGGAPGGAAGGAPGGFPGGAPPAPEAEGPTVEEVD
UniProt P07251, residues 36-545: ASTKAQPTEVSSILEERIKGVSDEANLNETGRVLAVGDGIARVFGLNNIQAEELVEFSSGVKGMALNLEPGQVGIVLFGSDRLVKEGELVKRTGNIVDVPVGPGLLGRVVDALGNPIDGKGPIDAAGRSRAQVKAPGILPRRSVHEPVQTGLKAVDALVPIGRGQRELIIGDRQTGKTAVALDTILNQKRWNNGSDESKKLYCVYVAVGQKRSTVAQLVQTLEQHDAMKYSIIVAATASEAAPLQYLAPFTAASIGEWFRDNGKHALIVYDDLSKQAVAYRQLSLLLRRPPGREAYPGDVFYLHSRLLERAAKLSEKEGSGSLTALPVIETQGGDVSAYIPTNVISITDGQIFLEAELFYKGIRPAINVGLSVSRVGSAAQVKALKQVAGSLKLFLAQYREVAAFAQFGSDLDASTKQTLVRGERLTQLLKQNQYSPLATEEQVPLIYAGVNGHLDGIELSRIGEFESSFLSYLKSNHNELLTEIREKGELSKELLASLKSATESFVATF
UniProt P00830, residues 34-511: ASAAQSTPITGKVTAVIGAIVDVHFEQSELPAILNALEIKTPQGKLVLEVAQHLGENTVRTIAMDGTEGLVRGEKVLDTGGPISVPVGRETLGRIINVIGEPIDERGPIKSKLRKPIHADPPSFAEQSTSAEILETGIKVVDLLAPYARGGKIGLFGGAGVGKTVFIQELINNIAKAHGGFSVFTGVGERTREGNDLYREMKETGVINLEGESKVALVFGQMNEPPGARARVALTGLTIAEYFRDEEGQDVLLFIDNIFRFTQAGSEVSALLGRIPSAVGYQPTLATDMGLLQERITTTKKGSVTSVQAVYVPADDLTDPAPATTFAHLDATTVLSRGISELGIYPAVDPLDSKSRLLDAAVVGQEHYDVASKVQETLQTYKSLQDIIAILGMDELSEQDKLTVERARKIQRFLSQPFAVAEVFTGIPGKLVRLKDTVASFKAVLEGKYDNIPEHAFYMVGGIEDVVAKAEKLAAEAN
UniProt P07260: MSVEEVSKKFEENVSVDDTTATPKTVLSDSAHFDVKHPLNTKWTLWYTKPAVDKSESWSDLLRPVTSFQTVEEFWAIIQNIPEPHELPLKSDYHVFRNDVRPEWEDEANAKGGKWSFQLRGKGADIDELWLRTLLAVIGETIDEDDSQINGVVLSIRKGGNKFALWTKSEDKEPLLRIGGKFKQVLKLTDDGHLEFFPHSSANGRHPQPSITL
UniProt P39522, residues 21-585: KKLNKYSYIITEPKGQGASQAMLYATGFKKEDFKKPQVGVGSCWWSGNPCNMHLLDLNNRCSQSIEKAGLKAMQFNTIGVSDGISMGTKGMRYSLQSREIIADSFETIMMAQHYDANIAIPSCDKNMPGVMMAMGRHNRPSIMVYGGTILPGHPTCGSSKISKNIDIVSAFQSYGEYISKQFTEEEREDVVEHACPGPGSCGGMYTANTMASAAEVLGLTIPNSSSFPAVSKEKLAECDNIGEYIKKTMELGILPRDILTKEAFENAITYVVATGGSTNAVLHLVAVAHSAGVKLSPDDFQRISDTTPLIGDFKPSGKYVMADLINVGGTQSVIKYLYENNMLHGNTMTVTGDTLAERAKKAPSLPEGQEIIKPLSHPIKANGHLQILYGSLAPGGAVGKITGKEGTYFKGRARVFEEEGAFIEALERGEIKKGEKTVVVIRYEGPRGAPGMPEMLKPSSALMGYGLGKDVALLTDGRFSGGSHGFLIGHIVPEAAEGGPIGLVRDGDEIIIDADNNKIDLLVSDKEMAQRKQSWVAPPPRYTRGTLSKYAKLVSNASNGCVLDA
UniProt P39685: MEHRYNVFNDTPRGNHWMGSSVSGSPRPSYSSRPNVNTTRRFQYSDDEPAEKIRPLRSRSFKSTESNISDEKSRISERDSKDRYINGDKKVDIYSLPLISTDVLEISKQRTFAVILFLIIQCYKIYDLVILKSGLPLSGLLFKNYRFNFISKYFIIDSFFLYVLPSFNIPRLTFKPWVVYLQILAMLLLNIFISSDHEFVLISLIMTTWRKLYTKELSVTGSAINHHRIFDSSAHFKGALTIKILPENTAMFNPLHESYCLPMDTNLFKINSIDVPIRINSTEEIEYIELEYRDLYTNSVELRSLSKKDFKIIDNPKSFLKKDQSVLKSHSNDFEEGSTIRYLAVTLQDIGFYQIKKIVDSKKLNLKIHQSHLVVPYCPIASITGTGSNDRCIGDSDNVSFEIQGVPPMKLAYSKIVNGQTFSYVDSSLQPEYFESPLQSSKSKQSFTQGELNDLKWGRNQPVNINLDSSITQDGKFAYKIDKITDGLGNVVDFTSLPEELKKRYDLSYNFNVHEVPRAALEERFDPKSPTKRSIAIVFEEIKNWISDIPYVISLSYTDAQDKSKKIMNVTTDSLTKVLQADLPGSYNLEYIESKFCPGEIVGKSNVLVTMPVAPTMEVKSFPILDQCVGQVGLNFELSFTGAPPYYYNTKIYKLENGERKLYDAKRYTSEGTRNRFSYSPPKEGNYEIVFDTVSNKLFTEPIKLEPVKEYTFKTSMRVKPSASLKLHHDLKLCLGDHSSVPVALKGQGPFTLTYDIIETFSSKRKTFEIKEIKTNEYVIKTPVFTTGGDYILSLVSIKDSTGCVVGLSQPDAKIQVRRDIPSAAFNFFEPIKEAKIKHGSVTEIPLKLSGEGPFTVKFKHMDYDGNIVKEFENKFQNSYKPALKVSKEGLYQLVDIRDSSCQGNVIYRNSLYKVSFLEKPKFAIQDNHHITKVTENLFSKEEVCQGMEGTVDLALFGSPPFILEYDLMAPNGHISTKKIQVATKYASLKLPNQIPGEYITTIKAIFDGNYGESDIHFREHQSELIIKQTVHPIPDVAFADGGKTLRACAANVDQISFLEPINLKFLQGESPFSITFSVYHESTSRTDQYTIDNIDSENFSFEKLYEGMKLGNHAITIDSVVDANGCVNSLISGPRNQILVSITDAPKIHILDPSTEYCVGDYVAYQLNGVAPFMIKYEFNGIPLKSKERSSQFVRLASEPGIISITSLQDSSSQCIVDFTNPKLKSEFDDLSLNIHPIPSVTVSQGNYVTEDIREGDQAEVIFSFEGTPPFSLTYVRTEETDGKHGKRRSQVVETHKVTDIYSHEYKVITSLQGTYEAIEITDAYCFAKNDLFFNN
UniProt P02992, residues 39-437: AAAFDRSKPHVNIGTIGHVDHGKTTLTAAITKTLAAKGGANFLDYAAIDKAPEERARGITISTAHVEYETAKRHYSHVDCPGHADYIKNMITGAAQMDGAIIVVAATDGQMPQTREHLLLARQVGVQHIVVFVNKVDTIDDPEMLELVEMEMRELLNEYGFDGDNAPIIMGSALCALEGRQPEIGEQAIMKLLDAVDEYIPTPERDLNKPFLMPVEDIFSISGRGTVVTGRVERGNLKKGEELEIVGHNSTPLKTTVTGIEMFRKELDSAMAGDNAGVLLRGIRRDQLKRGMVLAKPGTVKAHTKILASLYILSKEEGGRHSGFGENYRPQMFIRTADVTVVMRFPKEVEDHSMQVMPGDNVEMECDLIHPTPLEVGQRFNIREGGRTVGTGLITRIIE
UniProt P00359: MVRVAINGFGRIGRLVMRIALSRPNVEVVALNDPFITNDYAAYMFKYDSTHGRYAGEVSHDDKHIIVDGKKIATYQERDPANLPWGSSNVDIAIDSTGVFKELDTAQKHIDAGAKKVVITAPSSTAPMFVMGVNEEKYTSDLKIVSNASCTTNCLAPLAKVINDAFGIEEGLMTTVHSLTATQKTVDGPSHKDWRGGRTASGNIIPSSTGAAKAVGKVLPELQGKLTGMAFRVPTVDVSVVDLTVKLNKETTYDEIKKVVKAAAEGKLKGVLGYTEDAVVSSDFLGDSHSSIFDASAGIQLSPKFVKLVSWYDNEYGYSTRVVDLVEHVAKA

Experiment [1] deals with T1, Nfs1-His6 (S. cerevisiae) (UniProt P25374).
T1 sequence: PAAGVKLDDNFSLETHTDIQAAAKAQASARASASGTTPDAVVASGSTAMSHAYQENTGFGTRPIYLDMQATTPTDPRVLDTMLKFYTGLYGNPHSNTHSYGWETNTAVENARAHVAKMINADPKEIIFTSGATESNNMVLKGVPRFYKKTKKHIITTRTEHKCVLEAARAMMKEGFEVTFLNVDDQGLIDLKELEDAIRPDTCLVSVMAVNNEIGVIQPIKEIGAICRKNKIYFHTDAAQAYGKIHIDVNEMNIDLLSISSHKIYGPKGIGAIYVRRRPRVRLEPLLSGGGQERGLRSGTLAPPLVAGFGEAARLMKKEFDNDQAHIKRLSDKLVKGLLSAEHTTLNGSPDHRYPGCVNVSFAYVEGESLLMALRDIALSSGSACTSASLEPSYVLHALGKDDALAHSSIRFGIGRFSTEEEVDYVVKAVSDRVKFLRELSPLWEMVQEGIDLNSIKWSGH
Kind of experiment: affinity purification with mass spectrometry; Nfs1-His6 held on Ni-NTA superflow agarose from sonicated, cleared lysate of isolated mitochondria of the Gal-Nfs1-His6 yeast strain; 50 mM TrisCl pH 7.5, 80 mM KCl, 10% glycerol, wash 40 mM imidazole, elution 400 mM imidazole; eluate analysed by LC-MS/MS.

In experiment [2] the target is Yfh1-His6 (S. cerevisiae) (UniProt Q07540). Put plainly: affinity purification with mass spectrometry; Yfh1-His6 held on Ni-NTA superflow agarose from French-press lysate (108,000xg supernatant) of isolated mitochondria of the Yfh1-His6 yeast strain; 50 mM TrisCl pH 7.5, 80 mM KCl, 10% glycerol, wash 40 mM imidazole with 0.1% Triton X-100, elution 400 mM imidazole; eluate analysed by LC-MS/MS.

With “Homoisocitrate dehydrogenase, mitochondrial (from UniProt P40495 23-371)”, the binding entry in experiment [1] and in experiment [2] was “binds” throughout.

With “6,7-dimethyl-8-ribityllumazine synthase (from UniProt P50861 1-169)”, the binding result in experiment [1] and in experiment [2] was “binds” each time.

In the case of Cerevisin (from UniProt P09232), the binding entry in experiment [1] and in experiment [2] was “binds” each time.

Regarding “78 glucose-regulated protein homolog (from UniProt P16474 43-682)”, the binding result in experiment [1] and in experiment [2] was “binds” in each case.

For the molecule “Heat shock protein SSA1 (from UniProt P10591 1-642)”, the binding entry in experiment [1] and in experiment [2] was “binds” throughout.

Consider “Serine/threonine-protein kinase HRK1 (from UniProt Q08732 1-759)”, for which the binding entry in experiment [1] and in experiment [2] was “binds” throughout.

For the molecule “ATP synthase subunit alpha, mitochondrial (from UniProt P07251 36-545)”, the binding result in experiment [1] and in experiment [2] was “binds” in each case.

As for “Heat shock protein SSC1, mitochondrial (from UniProt P0CS90 24-654)”, the binding entry in experiment [1] and in experiment [2] was “binds” in each case.

On to “Glyceraldehyde-3-phosphate dehydrogenase 1 (from UniProt P00360 1-332)”, for which the binding result in experiment [1] and in experiment [2] was “binds” each time.

Regarding “ATP synthase subunit beta, mitochondrial (from UniProt P00830 34-511)”, the binding entry in experiment [1] and in experiment [2] was “binds” in each case.

For the molecule “Succinate dehydrogenase [ubiquinone] flavoprotein subunit, mitochondrial (from UniProt Q00711 29-640)”, the binding entry in experiment [1] and in experiment [2] was “binds” each time.

Take “Elongation factor 1-alpha (from UniProt P02994 1-458)”: the binding entry in experiment [1] and in experiment [2] was “binds” each time.

“Heat shock protein 60, mitochondrial (from UniProt P19882 26-572)”: the binding result in experiment [1] and in experiment [2] was “binds” each time.

For “Eukaryotic translation initiation factor 4E (from UniProt P07260 1-213)”, the binding entry in experiment [1] and in experiment [2] was “binds” in each case.

As for “V-type proton ATPase catalytic subunit A;Endonuclease PI-SceI (from UniProt P17255)”, the binding result in experiment [1] and in experiment [2] was “binds” each time.

On to “Dihydroxy-acid dehydratase, mitochondrial (from UniProt P39522 21-585)”, for which the binding result in experiment [1] and in experiment [2] was “binds” in each case.

As to “Glyceraldehyde-3-phosphate dehydrogenase 2 (from UniProt P00358 1-332)”, the binding entry in experiment [1] and in experiment [2] was “binds” in each case.

For the molecule “ADP,ATP carrier protein 2 (from UniProt P18239 1-318)”, the binding result in experiment [1] and in experiment [2] was “binds” in each case.

For the molecule “Nucleoporin POM152 (from UniProt P39685 1-1337)”, the binding entry in experiment [1] and in experiment [2] was “binds” throughout.

Take “Casein kinase I homolog 2 (from UniProt P23292 1-546) (enzyme)”: the binding result in experiment [1] and in experiment [2] was “binds” throughout.

For the molecule “Elongation factor Tu, mitochondrial (from UniProt P02992 39-437)”, the binding result in experiment [1] and in experiment [2] was “binds” each time.

As to “tRNA N6-adenosine threonylcarbamoyltransferase, mitochondrial (from UniProt P43122 31-407)”, the binding result in experiment [1] and in experiment [2] was “binds” throughout.

Turning to “Glyceraldehyde-3-phosphate dehydrogenase 3 (from UniProt P00359 1-332)”, the binding entry in experiment [1] and in experiment [2] was “binds” in each case.

B1: Protein HBT1 (protein, UniProt Q07653 1-1046)
chain: MNMNESISKDGQGEEEQNNFSFGGKPGSYDSNSDSAQRKKSFSTTKPTEYNLPKEQPESTSKNLETKAKNILLPWRKKHNKDSETPHEDTEADANRRANVTSDVNPVSADTKSSSGPNATITTHGYSYVKTTTPAATSEQSKVKTSPPTSHEHSNIKASPTAHRHSKGDAGHPSIATTHNHSTSKAATSPVTHTHGHSSATTSPVTHTHGHASVKTTSPTNTHEHSKANTGPSATATTHGHINVKTTHPVSHGHSGSSTGPKSTAAAQDHSSTKTNPSVTHGHTSVKDNSSATKGYSNTDSNSDRDVIPGSFRGMTGTDVNPVDPSVYTSTGPKSNVSSGMNAVDPSVYTDTSSKSADRRKYSGNTATGPPQDTIKEIAQNVKMDESEQTGLKNDQVSGSDAIQQQTMEPEPKAAVGTSGFVSQQPSYHDSNKNIQHPEKNKVDNKNISERAAEKFNIERDDILESADDYQQKNIKSKTDSNWGPIEYSSSAGKNKNLQDVVIPSSMKEKFDSGTSGSQNMPKAGTELGHMKYNDNGRDNLQYVAGSQAGSQNTNNNIDMSPRHEAEWSGLSNDATTRNNVVSPAMKDEDMNEDSTKPHQYGLDYLDDVEDYHENDIDDYSNAKKNDLYSKKAYQGKPSDYNYEQREKIPGTFEPDTLSKSVQKQDEDPLSPRQTTNRAGMETARDESLGNYEYSNTSGNKKLSDLSKNKSGPTPTRSNFIDQIEPRRAKTTQDIASDAKDFTNNPETGTTGNVDTTGRMGAKSKTFSSNPFDDSKNTDTHLENANVAAFDNSRSGDTTYSKSGDAETAAYDNIKNADPTYAKSQDITGMTHDQEPSSEQKASYGSGGNSQNQEYSSDDNIDVNKNAKVLEEDAPGYKREVDLKNKRRTDLGGADASNAYAAEVGNFPSLIDPHVPTYGFKDTNTSSSQKPSEGTYPETTSYSIHNETTSQGRKVSVGSMGSGKSKHHHNHHRHSRQNSSKGSDYDYNNSTHSAEHTPRHHQYGSDEGEQDYHDDEQGEEQAGKQSFMGRVRKSISGGTFGFRSEI
For the molecule B1, the binding result in experiment [2] is recorded as “binds”.

B2: UTP--glucose-1-phosphate uridylyltransferase (protein, UniProt P32861 1-499)
chain: MSTKKHTKTHSTYAFESNTNSVAASQMRNALNKLADSSKLDDAARAKFENELDSFFTLFRRYLVEKSSRTTLEWDKIKSPNPDEVVKYEIISQQPENVSNLSKLAVLKLNGGLGTSMGCVGPKSVIEVREGNTFLDLSVRQIEYLNRQYDSDVPLLLMNSFNTDKDTEHLIKKYSANRIRIRSFNQSRFPRVYKDSLLPVPTEYDSPLDAWYPPGHGDLFESLHVSGELDALIAQGREILFVSNGDNLGATVDLKILNHMIETGAEYIMELTDKTRADVKGGTLISYDGQVRLLEVAQVPKEHIDEFKNIRKFTNFNTNNLWINLKAVKRLIESSNLEMEIIPNQKTITRDGHEINVLQLETACGAAIRHFDGAHGVVVPRSRFLPVKTCSDLLLVKSDLFRLEHGSLKLDPSRFGPNPLIKLGSHFKKVSGFNARIPHIPKIVELDHLTITGNVFLGKDVTLRGTVIIVCSDGHKIDIPNGSILENVVVTGNLQILEH
Take B2: the binding entry in experiment [1] and in experiment [2] was “binds” in each case.

B3: Putative glucokinase-2 (protein, UniProt Q04409 1-500)
chain: MSFENLHKVNAEALEDAVVEICSSLQVDAAKLDELTAYFIECMEKGLNNTSVGEEKTVDKGLPMIPTYVTSLPNGTERGVLLAADLGGTHFRVCSVTLNGDGTFDMQQLKSKIPEEYLNDKDVTSEELFSYLGRRTRAFVRKHHPELLKSTGENIKPLKMGFTFSYPVDQTSLSSGTLIRWTKSFKIEDTVGKDVVRLYQEQLDIQGLSMINVVALTNDTVGTFLSHCYTSGSRPSSAGEISEPVIGCIFGTGTNGCYMEDIENIKKLPDELRTRLLHEGKTQMCINIEWGSFDNELKHLSATKYDIDIDQKFSPNPGYHLFEKRISGMYLGELLRNILVDLHARGLILGQYRNYDQLPHRLKTPFQLCSEVLSRIEIDDSTNLRETELSFLQSLRLPTTFEERKAIQNLVRSITRRSAYLAAVPIAAILIKTNALNKRYHGEVEIGFDGYVIEYYPGFRSMLRHALALSPIGTEGERKIHLRLAKDGSGVGAALCALVA
Take B3: the binding entry in experiment [1] and in experiment [2] was “binds” each time.

B4: Malate dehydrogenase, mitochondrial (protein, UniProt P17505 18-334)
chain: YKVTVLGAGGGIGQPLSLLLKLNHKVTDLRLYDLKGAKGVATDLSHIPTNSVVKGFTPEEPDGLNNALKDTDMVLIPAGVPRKPGMTRDDLFAINASIVRDLAAATAESAPNAAILVISNPVNSTVPIVAQVLKNKGVYNPKKLFGVTTLDSIRAARFISEVENTDPTQERVNVIGGHSGITIIPLISQTNHKLMSDDKRHELIHRIQFGGDEVVKAKNGAGSATLSMAHAGAKFANAVLSGFKGERDVIEPSFVDSPLFKSEGIEFFASPVTLGPDGIEKIHPIGELSSEEEEMLQKCKETLKKNIEKGVNFVASK
In the case of B4, in experiment [2], the binding entry was “binds”.

The values above are taken from PMC5675994.
